Results are given in words; binding and its absence hold for the method and conditions named. Binding seen in cells or lysates may run through a third protein. Some results given as binding are weak or reduced against the parent protein; the word gives no strength.
Assays:
[1] = target: β-catenin of the co-immunoprecipitation with the degradation complex (cell line not given) (UniProt P35222); assay: co-IP; immunoprecipitation with β-catenin antibody on protein A/G beads from cell lysates, overnight at 4 °C, four washes with PBST, then immunoblotting; CTRL or FAT4 overexpression cells
[2] = target: β-catenin, human, in ME180 cells (human (endogenous in ME180)) (UniProt P35222); assay: as above
[3] = target: β-catenin, mouse, in U14 cells (mouse (endogenous in U14)) (UniProt Q02248); assay: as above
[4] = target: PD-L1 of the co-immunoprecipitation with GSK-3β and STT3A (cell line not given) (UniProt Q9NZQ7); assay: co-IP; immunoprecipitation with PD-L1 antibody on protein A/G beads from cell lysates, overnight at 4 °C, four washes with PBST, then immunoblotting with GSK-3β and STT3A antibodies; CTRL or FAT4 overexpression cells

By UniProt entry, the sequences of proteins in these tests, tags left out. Residues count along the entry.
UniProt Q02248: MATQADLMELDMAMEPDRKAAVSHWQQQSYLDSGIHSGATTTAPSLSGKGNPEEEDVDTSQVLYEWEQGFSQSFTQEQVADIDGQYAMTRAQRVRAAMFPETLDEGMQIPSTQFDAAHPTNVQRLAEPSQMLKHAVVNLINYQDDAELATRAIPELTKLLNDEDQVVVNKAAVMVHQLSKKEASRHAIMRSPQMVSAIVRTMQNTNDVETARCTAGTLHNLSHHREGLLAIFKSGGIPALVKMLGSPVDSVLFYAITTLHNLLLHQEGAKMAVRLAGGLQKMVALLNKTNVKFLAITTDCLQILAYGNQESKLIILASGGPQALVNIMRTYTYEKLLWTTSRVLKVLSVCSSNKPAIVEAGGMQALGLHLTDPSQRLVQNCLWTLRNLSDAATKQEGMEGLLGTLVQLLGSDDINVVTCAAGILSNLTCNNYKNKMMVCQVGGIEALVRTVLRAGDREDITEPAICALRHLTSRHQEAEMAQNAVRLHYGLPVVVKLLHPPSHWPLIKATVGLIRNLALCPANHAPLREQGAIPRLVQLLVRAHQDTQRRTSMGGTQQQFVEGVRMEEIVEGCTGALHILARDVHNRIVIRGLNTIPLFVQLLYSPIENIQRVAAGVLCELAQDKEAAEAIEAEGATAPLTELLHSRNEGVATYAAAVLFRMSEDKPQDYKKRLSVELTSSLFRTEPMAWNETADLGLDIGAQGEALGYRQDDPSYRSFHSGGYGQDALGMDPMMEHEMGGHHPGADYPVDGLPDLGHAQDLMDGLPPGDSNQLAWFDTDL
UniProt O15169: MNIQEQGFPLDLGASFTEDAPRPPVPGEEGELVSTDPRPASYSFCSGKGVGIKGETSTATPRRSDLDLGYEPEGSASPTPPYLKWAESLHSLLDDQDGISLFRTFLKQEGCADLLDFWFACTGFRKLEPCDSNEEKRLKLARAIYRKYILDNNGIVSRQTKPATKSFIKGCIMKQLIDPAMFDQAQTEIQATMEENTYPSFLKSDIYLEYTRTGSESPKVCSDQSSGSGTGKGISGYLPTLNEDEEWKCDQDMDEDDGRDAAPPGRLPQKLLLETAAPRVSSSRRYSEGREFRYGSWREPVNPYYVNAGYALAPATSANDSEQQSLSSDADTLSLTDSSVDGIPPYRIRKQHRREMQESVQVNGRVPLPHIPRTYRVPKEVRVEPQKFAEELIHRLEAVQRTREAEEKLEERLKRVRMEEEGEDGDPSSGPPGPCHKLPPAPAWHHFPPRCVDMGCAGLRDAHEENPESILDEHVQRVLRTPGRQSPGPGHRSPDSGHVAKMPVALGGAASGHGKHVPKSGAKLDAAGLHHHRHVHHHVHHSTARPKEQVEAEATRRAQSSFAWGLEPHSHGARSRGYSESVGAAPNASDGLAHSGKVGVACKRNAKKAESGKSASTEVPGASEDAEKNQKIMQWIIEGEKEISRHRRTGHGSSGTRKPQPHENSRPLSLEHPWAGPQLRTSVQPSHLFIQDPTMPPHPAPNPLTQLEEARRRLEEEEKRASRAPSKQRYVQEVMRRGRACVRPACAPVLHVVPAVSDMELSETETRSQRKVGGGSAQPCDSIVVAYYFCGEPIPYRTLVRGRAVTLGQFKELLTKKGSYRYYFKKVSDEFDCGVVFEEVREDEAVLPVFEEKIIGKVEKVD
UniProt Q2PZL6, residues 43-4981: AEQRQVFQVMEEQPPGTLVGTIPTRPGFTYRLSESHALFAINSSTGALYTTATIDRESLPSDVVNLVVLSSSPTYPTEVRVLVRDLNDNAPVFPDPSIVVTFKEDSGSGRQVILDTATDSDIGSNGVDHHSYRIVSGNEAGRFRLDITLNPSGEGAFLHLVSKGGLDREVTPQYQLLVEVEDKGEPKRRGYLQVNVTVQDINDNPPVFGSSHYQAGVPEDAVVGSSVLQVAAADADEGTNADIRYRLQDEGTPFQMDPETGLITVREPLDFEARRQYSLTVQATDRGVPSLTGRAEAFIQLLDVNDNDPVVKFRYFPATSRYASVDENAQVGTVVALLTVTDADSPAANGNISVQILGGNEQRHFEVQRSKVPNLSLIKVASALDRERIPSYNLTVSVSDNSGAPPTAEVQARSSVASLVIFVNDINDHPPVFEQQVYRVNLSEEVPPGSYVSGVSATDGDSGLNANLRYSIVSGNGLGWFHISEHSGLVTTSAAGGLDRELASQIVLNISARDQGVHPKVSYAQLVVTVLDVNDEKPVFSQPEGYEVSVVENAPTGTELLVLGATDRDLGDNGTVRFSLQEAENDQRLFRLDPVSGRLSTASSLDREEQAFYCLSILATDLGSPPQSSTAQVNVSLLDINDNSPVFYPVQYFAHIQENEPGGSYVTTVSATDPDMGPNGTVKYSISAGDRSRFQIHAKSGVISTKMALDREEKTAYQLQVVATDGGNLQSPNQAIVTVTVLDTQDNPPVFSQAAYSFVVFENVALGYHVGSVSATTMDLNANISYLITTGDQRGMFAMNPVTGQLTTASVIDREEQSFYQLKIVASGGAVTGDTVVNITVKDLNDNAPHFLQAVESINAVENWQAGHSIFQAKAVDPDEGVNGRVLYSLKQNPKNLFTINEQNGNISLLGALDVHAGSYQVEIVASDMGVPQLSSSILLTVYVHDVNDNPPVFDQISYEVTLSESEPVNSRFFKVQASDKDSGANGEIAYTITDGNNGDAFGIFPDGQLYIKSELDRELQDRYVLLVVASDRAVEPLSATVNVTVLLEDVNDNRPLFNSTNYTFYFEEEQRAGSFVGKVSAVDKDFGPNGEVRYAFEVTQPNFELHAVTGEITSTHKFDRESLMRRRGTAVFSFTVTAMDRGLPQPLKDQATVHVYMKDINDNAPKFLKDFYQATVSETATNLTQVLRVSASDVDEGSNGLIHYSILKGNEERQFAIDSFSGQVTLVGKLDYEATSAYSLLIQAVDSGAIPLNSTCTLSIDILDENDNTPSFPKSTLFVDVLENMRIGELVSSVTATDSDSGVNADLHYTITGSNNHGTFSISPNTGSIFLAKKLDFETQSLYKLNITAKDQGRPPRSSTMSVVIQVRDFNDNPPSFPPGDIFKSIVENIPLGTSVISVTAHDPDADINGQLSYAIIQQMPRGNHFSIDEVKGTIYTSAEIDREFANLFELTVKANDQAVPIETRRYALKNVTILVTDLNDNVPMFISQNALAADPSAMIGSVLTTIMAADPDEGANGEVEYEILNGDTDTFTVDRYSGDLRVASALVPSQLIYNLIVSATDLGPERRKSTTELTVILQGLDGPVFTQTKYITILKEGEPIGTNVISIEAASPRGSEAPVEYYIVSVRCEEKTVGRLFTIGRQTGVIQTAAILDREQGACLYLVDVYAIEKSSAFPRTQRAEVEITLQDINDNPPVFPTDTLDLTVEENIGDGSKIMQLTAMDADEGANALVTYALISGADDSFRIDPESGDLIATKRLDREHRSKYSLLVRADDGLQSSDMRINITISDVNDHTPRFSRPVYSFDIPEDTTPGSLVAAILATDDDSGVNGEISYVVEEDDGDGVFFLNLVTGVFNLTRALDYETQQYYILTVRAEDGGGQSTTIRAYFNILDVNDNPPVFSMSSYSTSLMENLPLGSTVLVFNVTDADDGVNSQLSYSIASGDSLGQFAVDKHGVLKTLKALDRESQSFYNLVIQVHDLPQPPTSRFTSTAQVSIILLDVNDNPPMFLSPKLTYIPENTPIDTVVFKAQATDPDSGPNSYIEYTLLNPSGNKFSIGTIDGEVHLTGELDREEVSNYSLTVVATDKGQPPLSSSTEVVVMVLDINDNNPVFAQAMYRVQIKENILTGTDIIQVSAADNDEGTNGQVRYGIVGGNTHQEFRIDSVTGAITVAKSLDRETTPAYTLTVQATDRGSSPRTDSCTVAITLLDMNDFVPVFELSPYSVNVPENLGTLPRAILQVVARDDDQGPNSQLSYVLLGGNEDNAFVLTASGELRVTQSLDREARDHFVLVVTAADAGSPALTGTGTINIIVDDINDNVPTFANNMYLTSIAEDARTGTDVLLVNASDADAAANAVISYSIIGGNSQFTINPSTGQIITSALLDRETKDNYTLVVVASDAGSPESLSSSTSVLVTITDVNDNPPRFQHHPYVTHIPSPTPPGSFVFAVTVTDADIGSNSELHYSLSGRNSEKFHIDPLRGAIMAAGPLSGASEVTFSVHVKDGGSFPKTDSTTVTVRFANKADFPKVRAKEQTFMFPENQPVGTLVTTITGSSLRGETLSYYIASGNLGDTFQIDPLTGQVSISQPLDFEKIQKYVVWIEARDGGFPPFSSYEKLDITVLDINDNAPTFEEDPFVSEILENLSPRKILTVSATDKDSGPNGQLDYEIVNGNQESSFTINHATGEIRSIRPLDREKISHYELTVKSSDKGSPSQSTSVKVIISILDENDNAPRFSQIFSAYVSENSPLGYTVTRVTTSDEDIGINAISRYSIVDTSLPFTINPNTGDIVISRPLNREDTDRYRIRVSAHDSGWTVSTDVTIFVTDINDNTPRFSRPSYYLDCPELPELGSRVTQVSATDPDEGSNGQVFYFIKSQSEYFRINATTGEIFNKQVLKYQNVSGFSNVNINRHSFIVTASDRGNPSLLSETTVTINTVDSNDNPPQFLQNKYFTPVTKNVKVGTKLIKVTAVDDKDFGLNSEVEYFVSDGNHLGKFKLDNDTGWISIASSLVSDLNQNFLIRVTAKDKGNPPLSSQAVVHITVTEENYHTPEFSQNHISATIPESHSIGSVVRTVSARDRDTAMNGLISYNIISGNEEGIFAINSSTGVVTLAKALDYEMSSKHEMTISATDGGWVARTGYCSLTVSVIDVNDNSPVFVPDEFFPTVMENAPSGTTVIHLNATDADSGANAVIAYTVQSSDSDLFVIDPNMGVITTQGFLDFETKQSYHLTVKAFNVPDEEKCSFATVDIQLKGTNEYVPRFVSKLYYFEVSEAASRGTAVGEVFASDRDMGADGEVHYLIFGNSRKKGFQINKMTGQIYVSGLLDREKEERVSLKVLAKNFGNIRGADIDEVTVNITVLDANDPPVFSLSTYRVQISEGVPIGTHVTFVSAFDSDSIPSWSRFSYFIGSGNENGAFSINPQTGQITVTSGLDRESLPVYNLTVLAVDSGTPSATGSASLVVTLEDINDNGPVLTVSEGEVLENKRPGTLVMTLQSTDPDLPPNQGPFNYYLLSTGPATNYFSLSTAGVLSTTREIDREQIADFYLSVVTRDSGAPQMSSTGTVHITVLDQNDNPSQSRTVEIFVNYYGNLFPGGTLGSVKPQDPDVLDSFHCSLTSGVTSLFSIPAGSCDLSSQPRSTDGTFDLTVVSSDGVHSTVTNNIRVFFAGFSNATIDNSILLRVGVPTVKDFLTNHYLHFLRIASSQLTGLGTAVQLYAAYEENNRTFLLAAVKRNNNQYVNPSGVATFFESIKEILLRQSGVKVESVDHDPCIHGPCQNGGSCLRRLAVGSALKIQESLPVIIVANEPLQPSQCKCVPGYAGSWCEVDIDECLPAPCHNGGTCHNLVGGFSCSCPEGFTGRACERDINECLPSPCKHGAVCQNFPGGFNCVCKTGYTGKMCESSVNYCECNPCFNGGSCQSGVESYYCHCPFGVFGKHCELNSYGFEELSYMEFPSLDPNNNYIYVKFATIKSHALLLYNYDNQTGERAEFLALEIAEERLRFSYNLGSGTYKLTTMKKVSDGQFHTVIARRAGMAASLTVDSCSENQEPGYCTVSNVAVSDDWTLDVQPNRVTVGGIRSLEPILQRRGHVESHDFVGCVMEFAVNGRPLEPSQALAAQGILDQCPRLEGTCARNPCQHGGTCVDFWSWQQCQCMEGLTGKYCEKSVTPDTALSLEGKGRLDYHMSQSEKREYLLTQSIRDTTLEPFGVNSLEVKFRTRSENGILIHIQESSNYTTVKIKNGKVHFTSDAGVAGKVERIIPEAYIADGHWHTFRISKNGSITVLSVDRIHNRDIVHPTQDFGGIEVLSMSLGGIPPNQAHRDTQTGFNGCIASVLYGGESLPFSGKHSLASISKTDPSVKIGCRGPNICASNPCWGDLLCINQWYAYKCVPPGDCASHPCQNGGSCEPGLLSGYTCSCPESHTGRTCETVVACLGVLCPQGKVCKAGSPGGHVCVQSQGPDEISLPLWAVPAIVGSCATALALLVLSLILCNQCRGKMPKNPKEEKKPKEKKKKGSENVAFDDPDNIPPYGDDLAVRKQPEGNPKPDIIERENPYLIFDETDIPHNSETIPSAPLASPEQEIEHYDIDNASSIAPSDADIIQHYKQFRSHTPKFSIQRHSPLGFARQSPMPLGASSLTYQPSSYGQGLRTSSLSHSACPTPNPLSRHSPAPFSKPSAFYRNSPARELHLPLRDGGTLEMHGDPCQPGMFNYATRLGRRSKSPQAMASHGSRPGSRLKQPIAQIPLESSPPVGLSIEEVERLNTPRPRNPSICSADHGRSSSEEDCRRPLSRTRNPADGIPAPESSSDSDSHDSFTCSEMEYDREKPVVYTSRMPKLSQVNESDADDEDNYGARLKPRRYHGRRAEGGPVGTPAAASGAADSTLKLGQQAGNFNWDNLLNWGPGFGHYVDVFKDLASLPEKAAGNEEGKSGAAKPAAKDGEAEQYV

AXIN1 (from UniProt O15169 1-862)
binding [1]: binds

FAT4 (FAT Atypical Cadherin 4), human, in ME180 cells (from UniProt Q6V0I7 39-4981)
binding [2]: binds

FAT4, mouse, in U14 cells (from UniProt Q2PZL6 43-4981)
binding [3]: binds

B1: STT3A (enzyme, UniProt P46977 1-705)
chain: MTKFGFLRLSYEKQDTLLKLLILSMAAVLSFSTRLFAVLRFESVIHEFDPYFNYRTTRFLAEEGFYKFHNWFDDRAWYPLGRIIGGTIYPGLMITSAAIYHVLHFFHITIDIRNVCVFLAPLFSSFTTIVTYHLTKELKDAGAGLLAAAMIAVVPGYISRSVAGSYDNEGIAIFCMLLTYYMWIKAVKTGSICWAAKCALAYFYMVSSWGGYVFLINLIPLHVLVLMLTGRFSHRIYVAYCTVYCLGTILSMQISFVGFQPVLSSEHMAAFGVFGLCQIHAFVDYLRSKLNPQQFEVLFRSVISLVGFVLLTVGALLMLTGKISPWTGRFYSLLDPSYAKNNIPIIASVSEHQPTTWSSYYFDLQLLVFMFPVGLYYCFSNLSDARIFIIMYGVTSMYFSAVMVRLMLVLAPVMCILSGIGVSQVLSTYMKNLDISRPDKKSKKQQDSTYPIKNEVASGMILVMAFFLITYTFHSTWVTSEAYSSPSIVLSARGGDGSRIIFDDFREAYYWLRHNTPEDAKVMSWWDYGYQITAMANRTILVDNNTWNNTHISRVGQAMASTEEKAYEIMRELDVSYVLVIFGGLTGYSSDDINKFLWMVRIGGSTDTGKHIKENDYYTPTGEFRVDREGSPVLLNCLMYKMCYYRFGQVYTEAKRPPGFDRVRNAEIGNKDFELDVLEEAYTTEHWLVRIYKVKDLDNRGLSRT
binding [4]: binds
